Results: paper PMC9684564
These are yes or no findings as the source states them, for the method shown. In cells and extracts the contact can be indirect. Some entries that bind do so weakly or less than the wild type. Values belong to the molecule of their own block, whether it stands above or below them.

By UniProt entry, the sequences of proteins in these tests, tags left out.
UniProt Q14974: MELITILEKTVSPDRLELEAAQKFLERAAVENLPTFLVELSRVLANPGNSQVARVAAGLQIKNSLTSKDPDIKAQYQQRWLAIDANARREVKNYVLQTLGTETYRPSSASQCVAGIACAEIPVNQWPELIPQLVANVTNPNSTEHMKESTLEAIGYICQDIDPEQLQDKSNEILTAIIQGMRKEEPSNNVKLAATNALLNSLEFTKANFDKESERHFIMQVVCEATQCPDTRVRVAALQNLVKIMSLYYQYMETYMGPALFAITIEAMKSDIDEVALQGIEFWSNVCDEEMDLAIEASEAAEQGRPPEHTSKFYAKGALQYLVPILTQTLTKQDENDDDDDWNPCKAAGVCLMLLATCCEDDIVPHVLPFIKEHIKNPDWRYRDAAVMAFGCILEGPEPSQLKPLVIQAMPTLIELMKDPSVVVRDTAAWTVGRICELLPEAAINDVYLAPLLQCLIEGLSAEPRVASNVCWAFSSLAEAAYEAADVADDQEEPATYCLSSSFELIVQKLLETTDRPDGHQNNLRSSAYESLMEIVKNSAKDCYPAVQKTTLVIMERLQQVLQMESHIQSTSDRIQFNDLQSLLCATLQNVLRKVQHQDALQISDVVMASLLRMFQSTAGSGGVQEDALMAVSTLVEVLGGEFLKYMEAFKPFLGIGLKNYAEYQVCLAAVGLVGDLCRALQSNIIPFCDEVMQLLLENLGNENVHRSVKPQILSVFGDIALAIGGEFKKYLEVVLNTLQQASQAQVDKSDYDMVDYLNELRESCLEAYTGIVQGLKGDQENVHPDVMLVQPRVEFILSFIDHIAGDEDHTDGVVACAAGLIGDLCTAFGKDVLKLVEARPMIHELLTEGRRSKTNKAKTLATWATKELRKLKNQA
UniProt Q96AE4: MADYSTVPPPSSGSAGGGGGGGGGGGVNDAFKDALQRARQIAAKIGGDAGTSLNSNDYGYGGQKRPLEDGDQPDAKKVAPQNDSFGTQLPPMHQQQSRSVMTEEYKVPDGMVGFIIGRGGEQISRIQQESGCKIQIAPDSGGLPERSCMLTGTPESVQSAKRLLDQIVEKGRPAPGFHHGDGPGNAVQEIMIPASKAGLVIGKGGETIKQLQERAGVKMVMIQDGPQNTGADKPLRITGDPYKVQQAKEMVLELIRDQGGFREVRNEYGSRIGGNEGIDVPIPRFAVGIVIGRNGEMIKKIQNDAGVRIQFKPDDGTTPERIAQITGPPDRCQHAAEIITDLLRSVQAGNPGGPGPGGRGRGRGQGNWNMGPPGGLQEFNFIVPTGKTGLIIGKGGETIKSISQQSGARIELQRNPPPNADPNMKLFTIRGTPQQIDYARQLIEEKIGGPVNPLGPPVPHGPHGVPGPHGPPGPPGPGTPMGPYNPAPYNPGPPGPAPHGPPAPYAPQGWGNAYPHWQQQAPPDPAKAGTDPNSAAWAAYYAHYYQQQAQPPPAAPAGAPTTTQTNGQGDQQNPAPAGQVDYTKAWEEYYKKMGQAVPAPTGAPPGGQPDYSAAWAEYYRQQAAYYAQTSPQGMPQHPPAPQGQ
UniProt P04406: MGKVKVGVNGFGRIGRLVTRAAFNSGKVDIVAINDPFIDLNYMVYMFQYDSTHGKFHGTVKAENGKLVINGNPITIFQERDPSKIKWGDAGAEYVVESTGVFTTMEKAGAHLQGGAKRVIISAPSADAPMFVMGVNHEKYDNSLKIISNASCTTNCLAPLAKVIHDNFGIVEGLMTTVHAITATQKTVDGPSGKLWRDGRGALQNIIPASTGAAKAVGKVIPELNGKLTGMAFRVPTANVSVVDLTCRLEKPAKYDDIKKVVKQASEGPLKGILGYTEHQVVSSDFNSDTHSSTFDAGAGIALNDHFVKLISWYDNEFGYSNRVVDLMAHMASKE
UniProt O14980: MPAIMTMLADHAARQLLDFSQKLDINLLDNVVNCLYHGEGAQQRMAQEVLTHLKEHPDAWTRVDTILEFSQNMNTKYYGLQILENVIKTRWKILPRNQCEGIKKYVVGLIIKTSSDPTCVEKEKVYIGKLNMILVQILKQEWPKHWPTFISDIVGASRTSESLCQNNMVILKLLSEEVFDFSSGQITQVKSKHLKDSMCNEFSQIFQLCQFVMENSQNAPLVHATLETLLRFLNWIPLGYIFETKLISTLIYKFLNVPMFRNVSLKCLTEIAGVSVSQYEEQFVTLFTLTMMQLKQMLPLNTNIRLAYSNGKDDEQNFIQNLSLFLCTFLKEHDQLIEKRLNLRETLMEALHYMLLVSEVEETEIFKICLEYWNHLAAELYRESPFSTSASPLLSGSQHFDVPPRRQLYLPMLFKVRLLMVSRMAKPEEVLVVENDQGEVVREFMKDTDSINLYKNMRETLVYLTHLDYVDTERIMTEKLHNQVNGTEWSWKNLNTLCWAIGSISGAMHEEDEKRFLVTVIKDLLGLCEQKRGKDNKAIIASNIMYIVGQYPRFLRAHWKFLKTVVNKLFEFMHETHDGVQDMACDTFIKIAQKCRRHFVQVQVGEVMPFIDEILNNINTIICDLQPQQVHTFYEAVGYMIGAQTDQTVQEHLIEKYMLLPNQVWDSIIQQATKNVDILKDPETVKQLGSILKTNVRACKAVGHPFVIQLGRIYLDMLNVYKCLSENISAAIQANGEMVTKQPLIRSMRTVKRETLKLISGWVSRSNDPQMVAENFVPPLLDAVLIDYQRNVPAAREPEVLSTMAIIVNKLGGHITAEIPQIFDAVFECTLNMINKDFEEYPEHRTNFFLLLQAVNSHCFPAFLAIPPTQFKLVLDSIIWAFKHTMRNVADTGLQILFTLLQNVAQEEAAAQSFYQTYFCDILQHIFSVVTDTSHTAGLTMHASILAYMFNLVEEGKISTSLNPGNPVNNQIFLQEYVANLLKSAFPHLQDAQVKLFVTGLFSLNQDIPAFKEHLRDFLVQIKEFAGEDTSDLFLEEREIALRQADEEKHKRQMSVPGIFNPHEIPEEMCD

Experiments:
[1] = target: Karyopherin beta 1 (human (endogenous in hTERT-RPE1, HeLa, WHCO5, KYSE30)) (UniProt Q14974); test: co-IP; endogenous Kpnβ1 precipitated with anti-Karyopherin β1 (H-7) agarose-conjugated antibody from lysates of hTERT-RPE-1, HeLa, WHCO5 and KYSE30 cells; Western blot of the whole immunoprecipitate; IgG isotype control with protein A agarose beads
[2] = target: Karyopherin beta 1 (human (endogenous in hTERT-RPE1, HeLa, WHCO5, KYSE30)) (UniProt Q14974); test: as above; remark: listed apart in the source
[3] = target: Karyopherin beta 1 (human (endogenous in hTERT-RPE1, HeLa, WHCO5, KYSE30)) (UniProt Q14974); test: condition: only in lysates of hTERT-RPE-1 and WHCO5 cells; co-IP; as a2, lysates of hTERT-RPE-1 and WHCO5 cells only (CCAR1 blot)
[4] = target: Karyopherin beta 1 (human (endogenous in hTERT-RPE1, HeLa, WHCO5, KYSE30)) (UniProt Q14974); test: co-IP; as a2, lysate of KYSE30 cells only (CCAR1 blot)

Molecule: Far upstream element-binding protein 1 (from UniProt Q96AE4 1-644)
- binding [1]: binds

Molecule: GAPDH (from UniProt P04406 1-335)
- binding [1]: no binding

Second part, the molecule after the results:

- binding [1]: binds
Molecule: CRM1 (from UniProt O14980 1-1071)

- binding [2]: binds
- binding [3]: no binding
- binding [4]: binds weakly
B1: Cell division cycle and apoptosis regulator protein 1 (protein, UniProt Q8IX12 1-1150)
chain: MAQFGGQKNPPWATQFTATAVSQPAALGVQQPSLLGASPTIYTQQTALAAAGLTTQTPANYQLTQTAALQQQAAAAAAALQQQYSQPQQALYSVQQQLQQPQQTLLTQPAVALPTSLSLSTPQPTAQITVSYPTPRSSQQQTQPQKQRVFTGVVTKLHDTFGFVDEDVFFQLSAVKGKTPQVGDRVLVEATYNPNMPFKWNAQRIQTLPNQNQSQTQPLLKTPPAVLQPIAPQTTFGVQTQPQPQSLLQAQISAASITPLLQTQPQPLLQQPQQKAGLLQPPVRIVSQPQPARRLDPPSRFSGRNDRGDQVPNRKDDRSRERERERRRSRERSPQRKRSRERSPRRERERSPRRVRRVVPRYTVQFSKFSLDCPSCDMMELRRRYQNLYIPSDFFDAQFTWVDAFPLSRPFQLGNYCNFYVMHREVESLEKNMAILDPPDADHLYSAKVMLMASPSMEDLYHKSCALAEDPQELRDGFQHPARLVKFLVGMKGKDEAMAIGGHWSPSLDGPDPEKDPSVLIKTAIRCCKALTGIDLSVCTQWYRFAEIRYHRPEETHKGRTVPAHVETVVLFFPDVWHCLPTRSEWETLSRGYKQQLVEKLQGERKEADGEQDEEEKDDGEAKEISTPTHWSKLDPKTMKVNDLRKELESRALSSKGLKSQLIARLTKQLKVEEQKEEQKELEKSEKEEDEDDDRKSEDDKEEEERKRQEEIERQRRERRYILPDEPAIIVHPNWAAKSGKFDCSIMSLSVLLDYRLEDNKEHSFEVSLFAELFNEMLQRDFGVRIYKSLLSLPEKEDKKEKDKKSKKDERKDKKEERDDETDEPKPKRRKSGDDKDKKEDRDERKKEDKRKDDSKDDDETEEDNNQDEYDPMEAEEAEDEEDDRDEEEMTKRDDKRDINRYCKERPSKDKEKEKTQMITINRDLLMAFVYFDQSHCGYLLEKDLEEILYTLGLHLSRAQVKKLLNKVVLRESCFYRKLTDTSKDEENHEESESLQEDMLGNRLLLPTPTVKQESKDVEENVGLIVYNGAMVDVGSLLQKLEKSEKVRAEVEQKLQLLEEKTDEDEKTILNLENSNKSLSGELREVKKDLSQLQENLKISENMNLQFENQMNKTIRNLSTVMDEIHTVLKKDNVKNEDKDQKSKENGASV
